## Percent effect of library compounds

Amino acid sequences for entries named in this document (tags omitted). Residues count along the entry.
UniProt P9WNZ1, whole entry: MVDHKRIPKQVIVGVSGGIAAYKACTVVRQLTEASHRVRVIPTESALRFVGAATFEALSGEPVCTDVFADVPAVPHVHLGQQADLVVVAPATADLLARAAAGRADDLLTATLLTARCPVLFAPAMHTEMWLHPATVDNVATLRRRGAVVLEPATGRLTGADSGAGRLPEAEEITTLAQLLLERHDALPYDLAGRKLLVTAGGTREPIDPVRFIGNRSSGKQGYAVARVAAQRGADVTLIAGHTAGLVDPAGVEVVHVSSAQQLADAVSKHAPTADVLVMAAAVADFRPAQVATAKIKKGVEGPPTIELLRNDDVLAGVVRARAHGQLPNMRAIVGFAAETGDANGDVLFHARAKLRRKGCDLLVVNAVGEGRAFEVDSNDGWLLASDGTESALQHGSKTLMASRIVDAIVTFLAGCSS
UniProt P9WFT3, whole entry: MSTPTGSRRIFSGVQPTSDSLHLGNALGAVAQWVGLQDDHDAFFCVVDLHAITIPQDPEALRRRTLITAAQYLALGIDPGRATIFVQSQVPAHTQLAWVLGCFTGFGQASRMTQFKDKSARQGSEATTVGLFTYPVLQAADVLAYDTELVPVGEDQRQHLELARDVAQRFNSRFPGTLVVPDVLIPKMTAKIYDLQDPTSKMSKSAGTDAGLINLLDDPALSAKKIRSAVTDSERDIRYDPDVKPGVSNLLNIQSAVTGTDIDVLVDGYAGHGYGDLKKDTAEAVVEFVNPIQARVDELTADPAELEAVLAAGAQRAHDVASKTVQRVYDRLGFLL
UniProt P9WPC5, whole entry: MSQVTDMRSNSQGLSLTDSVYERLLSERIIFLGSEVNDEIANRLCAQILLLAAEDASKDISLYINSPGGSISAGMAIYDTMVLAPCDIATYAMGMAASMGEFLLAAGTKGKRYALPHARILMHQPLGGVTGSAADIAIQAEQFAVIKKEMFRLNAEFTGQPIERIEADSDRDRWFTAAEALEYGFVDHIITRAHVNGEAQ
UniProt P9WPC3, whole entry partner: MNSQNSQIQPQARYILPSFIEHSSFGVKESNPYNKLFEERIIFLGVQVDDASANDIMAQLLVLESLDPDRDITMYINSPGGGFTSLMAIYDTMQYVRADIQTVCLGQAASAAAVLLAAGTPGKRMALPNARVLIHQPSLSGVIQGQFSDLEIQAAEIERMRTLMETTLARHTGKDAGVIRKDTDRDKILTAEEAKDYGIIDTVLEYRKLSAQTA
UniProt A4I591, 1-473: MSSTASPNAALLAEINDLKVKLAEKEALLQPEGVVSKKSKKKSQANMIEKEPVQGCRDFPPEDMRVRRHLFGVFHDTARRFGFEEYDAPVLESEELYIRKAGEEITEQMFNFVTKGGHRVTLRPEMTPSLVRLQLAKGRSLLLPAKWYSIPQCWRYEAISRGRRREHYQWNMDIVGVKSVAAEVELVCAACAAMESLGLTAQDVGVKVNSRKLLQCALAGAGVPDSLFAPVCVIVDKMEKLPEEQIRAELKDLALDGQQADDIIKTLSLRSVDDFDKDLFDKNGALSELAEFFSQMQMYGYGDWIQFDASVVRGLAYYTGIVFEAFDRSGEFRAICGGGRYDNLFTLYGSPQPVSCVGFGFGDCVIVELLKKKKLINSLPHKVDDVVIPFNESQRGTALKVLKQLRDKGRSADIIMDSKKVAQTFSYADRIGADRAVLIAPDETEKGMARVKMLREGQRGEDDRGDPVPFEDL
UniProt Q4DA54, 1-478: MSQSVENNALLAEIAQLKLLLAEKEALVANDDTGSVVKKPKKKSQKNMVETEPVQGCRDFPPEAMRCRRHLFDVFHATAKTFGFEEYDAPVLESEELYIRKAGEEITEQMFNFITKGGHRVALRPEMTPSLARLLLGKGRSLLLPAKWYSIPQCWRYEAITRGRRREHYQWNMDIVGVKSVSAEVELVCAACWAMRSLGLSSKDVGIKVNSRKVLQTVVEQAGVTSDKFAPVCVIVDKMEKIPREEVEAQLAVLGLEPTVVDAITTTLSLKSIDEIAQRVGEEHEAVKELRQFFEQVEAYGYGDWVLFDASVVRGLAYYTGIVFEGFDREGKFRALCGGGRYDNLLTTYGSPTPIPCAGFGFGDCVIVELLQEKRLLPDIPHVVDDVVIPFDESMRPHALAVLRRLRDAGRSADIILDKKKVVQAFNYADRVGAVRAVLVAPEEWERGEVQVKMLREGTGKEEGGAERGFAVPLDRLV

Values are the deposited “Percent Effect”, in %.
The record does not define 0% and 100%; most values in the screen are far below 50% and negative numbers occur (in some assays of this library far below -100).
Compounds were drawn at random from those tested, without regard to their results.
Two or more numbers in one place are separate tests of the same structure; such repeats can differ widely.
A dash means the value is not listed here; it may have been measured.

CoaBC: 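Enzyme assay of CoaBC with a phosphate dye (Biomol Green) read at 650 nm. Target: Coenzyme A biosynthesis protein CoaBC, Mycobacterium tuberculosis (UniProt P9WNZ1). Tested at 30 µM. Direction is inferred from only a few compounds that gave an IC50; most scored high, so higher reads as stronger inhibition. Most strong results did not repeat in a second test. About 67,000 compounds were tested under these conditions; 0.06% (about 40) showed 50% or more at least once.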
MtTrpRS: 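Enzyme assay of tryptophanyl-tRNA synthetase; the read-out is not stated. Target: Tryptophan-tRNA ligase, Mycobacterium tuberculosis (UniProt P9WFT3). Concentration: 10 µM. Higher most likely means stronger inhibition; the record gives no direction and few retests gave an IC50. Of about 65,000 compounds tested this way, about 64 (0.098%) reached 50% or more in at least one test.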
ClpP1P2: 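ClpP1P2, Mycobacterium tuberculosis (UniProt P9WPC5 and UniProt P9WPC3). Protease assay of ClpP1P2, read by the AMC dye that it sets free. Compounds at 50 µM. Direction is inferred from only a few compounds that gave an IC50; most scored high, so higher reads as stronger inhibition. Most other retested compounds had strongly negative values. Of about 69,000 compounds tested this way, about 10 (0.015%) reached 50% or more in at least one test.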
LiHisRS: 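Enzyme assay of histidyl-tRNA synthetase; the read-out is not stated. Target: Histidine-tRNA ligase, Leishmania infantum (UniProt A4I591). Tested at 30 µM. The record gives no direction; compounds that gave an IC50 in retests scored well above the rest, so higher reads as stronger inhibition. The assay is labelled LdHisRS but filed under L. infantum. About 69,000 compounds were tested under these conditions; 0.6% (about 410) showed 50% or more at least once.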
TcHisRS: 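Histidine-tRNA ligase, Trypanosoma cruzi CL Brener (UniProt Q4DA54). Enzyme assay of histidyl-tRNA synthetase; the read-out is not stated. Tested at 30 µM. The record gives no direction; compounds that gave an IC50 in retests scored well above the rest, so higher reads as stronger inhibition. Size under these conditions: about 69,000 compounds, about 31 of them at 50% or above in at least one test.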

structure,CoaBC,MtTrpRS,ClpP1P2,LiHisRS,TcHisRS
CNC(=O)C1CN(C(=O)c2cccs2)CCN(S(C)(=O)=O)C1 (stereo not shown),-2.466,-6.596,-11.78,7.042,0
Cn1nc(Cn2ccnc2)c2c1CN(c1nccs1)C2,17.97,-2.748,1.917,52.63,66.67
Cc1cc(C)nc(N2CCCC(Cn3cc(CN(C)C)nn3)C2)n1 (stereo not shown),-16.96,-0.09633,-1.741,3.665,3.743
O=C(c1ccccc1)N1C[C@@H]2CC[C@H](C1)N(S(=O)(=O)c1cccnc1)C2,0.4854,-5.961,-12.33,9.639,8.287
Cn1ccnc1SCC(=O)NCc1ccc2c(c1)CCC(=O)N2,0.2336,-5.585,1.418,18.58,-1.327
CN(C(=O)CNc1ccc(C#N)cc1)C1CCN(c2ccccn2)CC1,6.048,-2.785,6.896,21.05,9.244
CC(C)(C)OC(=O)Cn1nc(C2CC2)cc(C(F)(F)F)c1=O,2.101,-5.489,-0.244,14.53,3.333
CN(Cc1cnn(C)c1)C(=O)CCC(=O)c1ccc2c(c1)OCCO2,-1.665,1.928,-10.34,9.877,-0.6135
Cc1cc(NCCO)nc2[nH]nc(N)c12,2.525,5.812,-5.244,15.79,0.5848
CCc1c(C(=O)N2CC(C)OC(C)(C)C2)cnn1-c1ccccn1 (stereo not shown),2.811,-0.8189,-5.349,19.4,1.064
O=C(c1ccsc1)N1CCO[C@@H]2CN(Cc3ccco3)CC[C@@H]2C1,-0.2469,-,4.399,17.27,1.058
O=c1c2ccccc2ncn1Cc1cc(C2CC2)[nH]n1,2.222,5.638,19.79,6.993,9.453
COCC(C)NC(=O)CN1CCC(CO)CC1 (stereo not shown),2.911,-1.632,14.23,22.89,-1.22
CN(Cc1nnnn1C1CC1)CC1COc2ccccc2O1 (stereo not shown),-1.635,0.4082,-13.6,17.7,2.679
CCc1noc(C)c1C(=O)N1CCN(c2nc(C)cc(OC)n2)CC1,-0.9724,2.437,-3.943,6.349,4.04
CN(C)C(=O)CNC(=O)c1cc2ccccc2nc1N1CCCC1,-5.447,-1.899,-0.2426,11.71,11.67
CCOCC1CN(Cc2ccc(OC)cc2)Cc2nn(C)cc21 (stereo not shown),-1.931,5.657,6.111,0,7.104
O=C(CCc1cscn1)N1CCCC(n2ccnc2)C1 (stereo not shown),2.872,-1.267,-0.1213,10.81,1.88
CC(C)N1[C@H](Cn2cncn2)C[C@@H]2CNCC[C@@H]21,-1.844,-4.026,3.815,18,9.195
CN(Cc1ccco1)c1ccc(-c2nccn2C)nn1,0.7317,2.037,6.913,-3.333,-1.299
Cc1nn(C)c(Cl)c1C1CCCN1C(=O)c1ccncc1 (stereo not shown),13.92 and 21.49,-4.309,-9.707,-1.786,4.651
Cc1cnn(CC2CCCN2C(=O)CCc2c(C)nn(C)c2C)c1 (stereo not shown),6.192,-1.357,-5.676,6.849,3
CN1C[C@H](c2ccccc2)[C@H]2CN(C(=O)Cc3cccc(O)c3)CC[C@H]21,-16.22,-0.5875,-21.77,11.19,2.825
COCCN1CCC2(C1)c1ccccc1S(=O)(=O)N2C (stereo not shown),3.171,-,5.76,15.09,11.11
CC(C)N(CC(=O)Nc1ccc(Br)cc1Cl)Cc1cccnc1,13.03,1.432,4.528,31.18,12.5
CCn1c(CC2CCN(S(=O)(=O)c3cccs3)CC2)nn(C)c1=O,8.009,4.348,-9.724,13.11,-2.4
Cc1cn(-c2ccccc2)nc1NS(=O)(=O)c1ccc(C(=O)O)cc1F,4.177,-1.632,-1.297,18.07,1.22
Cn1cnnc1C1CCN(C(=O)CCCOCc2ccccc2)CC1,1.332,0,-8.235,-1.087,-0.9901
N#Cc1cccc(S(=O)(=O)NC(=O)COCC(F)(F)F)c1,3.512,-6.502,-1.336,16.44,1.587
N#CC(NC(=O)CCCOc1cccnc1)c1ccc(F)cc1F (stereo not shown),3.03,0.129,-4.185,15.96,9.091
Cc1cc(NCCNc2cccnc2)nc(-c2ccccc2O)n1,4.151,1.905,-14.69,7.08,4.464
Cn1nnc2c1CCN(C(=O)C1CCC1)C2COCCN1CCCC1 (stereo not shown),3.583,-3.906,-17.35,11.43,4.902
O=C1CCCCN1CCc1nc(-c2cccnn2)no1,6.446,2.203,-0.6432,18.37,12
Cc1ncsc1C(=O)NCC1CCC2(CCNCC2)CO1 (stereo not shown),-,-0.9709,-7.276,1.724,3.797
O=C(CN1CC(c2ccccc2)CC1=O)N1CCC(c2ncc[nH]2)CC1 (stereo not shown),5.018,1.924,6.932,8.333,1.739
COc1ccc(C(=O)C2CCCN(c3cnccn3)C2)c(C)c1 (stereo not shown),1.79,-5.354,-10.92,21.31,12.12
Cc1ccc(CN2CCc3c(CN4CCCC4)n[nH]c3C2)s1,-25.87,-2.525,-7.442,10.53,3.448
O=C(NCc1cncc2c1CCN(C1CCOC1)C2)c1ccco1 (stereo not shown),4,-,-7.448,9.615,2.793
O=C1NC2(CCN(Cc3ccsc3)CC2)CC1c1ccncc1 (stereo not shown),2.941,-2.092,1.847,7.273,10.74

Data taken from ChEMBL document CHEMBL3988442, “University of Dundee, Small-Polar-MMV Screening Library” (2021).